SMILES strings stand for the structures. Values after ≈ are worked out from the molar mass of the structure shown. The structures given here were assigned with low confidence; some may be wrong.

Sequences of proteins named here, by UniProt entry; tags and fusion partners are left off. Residues count along the entry.
UniProt Q92769, whole entry: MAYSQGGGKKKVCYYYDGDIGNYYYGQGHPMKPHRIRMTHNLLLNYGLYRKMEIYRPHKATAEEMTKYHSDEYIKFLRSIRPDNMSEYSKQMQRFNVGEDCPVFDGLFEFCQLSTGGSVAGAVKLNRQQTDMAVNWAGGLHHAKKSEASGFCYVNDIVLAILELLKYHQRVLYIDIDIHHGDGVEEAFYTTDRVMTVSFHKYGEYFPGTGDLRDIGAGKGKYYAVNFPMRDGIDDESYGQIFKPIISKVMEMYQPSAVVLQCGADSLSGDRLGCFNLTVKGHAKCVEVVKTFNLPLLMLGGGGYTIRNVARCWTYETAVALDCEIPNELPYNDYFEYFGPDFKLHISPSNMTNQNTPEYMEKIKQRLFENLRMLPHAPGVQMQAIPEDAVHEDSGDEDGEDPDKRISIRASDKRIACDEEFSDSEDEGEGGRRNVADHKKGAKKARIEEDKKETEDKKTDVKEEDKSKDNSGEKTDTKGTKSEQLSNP
UniProt O15379, whole entry: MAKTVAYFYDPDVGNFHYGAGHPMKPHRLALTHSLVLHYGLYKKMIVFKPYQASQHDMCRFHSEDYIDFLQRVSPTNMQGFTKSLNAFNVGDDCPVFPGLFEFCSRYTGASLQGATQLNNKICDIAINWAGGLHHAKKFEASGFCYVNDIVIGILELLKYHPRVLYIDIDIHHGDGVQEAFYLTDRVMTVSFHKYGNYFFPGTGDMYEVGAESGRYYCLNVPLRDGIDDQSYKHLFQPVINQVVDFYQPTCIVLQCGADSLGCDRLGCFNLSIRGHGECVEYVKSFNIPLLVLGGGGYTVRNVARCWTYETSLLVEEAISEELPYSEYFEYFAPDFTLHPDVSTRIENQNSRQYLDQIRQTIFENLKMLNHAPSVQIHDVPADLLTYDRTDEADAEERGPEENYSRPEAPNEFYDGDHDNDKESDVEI
UniProt Q12809, whole entry: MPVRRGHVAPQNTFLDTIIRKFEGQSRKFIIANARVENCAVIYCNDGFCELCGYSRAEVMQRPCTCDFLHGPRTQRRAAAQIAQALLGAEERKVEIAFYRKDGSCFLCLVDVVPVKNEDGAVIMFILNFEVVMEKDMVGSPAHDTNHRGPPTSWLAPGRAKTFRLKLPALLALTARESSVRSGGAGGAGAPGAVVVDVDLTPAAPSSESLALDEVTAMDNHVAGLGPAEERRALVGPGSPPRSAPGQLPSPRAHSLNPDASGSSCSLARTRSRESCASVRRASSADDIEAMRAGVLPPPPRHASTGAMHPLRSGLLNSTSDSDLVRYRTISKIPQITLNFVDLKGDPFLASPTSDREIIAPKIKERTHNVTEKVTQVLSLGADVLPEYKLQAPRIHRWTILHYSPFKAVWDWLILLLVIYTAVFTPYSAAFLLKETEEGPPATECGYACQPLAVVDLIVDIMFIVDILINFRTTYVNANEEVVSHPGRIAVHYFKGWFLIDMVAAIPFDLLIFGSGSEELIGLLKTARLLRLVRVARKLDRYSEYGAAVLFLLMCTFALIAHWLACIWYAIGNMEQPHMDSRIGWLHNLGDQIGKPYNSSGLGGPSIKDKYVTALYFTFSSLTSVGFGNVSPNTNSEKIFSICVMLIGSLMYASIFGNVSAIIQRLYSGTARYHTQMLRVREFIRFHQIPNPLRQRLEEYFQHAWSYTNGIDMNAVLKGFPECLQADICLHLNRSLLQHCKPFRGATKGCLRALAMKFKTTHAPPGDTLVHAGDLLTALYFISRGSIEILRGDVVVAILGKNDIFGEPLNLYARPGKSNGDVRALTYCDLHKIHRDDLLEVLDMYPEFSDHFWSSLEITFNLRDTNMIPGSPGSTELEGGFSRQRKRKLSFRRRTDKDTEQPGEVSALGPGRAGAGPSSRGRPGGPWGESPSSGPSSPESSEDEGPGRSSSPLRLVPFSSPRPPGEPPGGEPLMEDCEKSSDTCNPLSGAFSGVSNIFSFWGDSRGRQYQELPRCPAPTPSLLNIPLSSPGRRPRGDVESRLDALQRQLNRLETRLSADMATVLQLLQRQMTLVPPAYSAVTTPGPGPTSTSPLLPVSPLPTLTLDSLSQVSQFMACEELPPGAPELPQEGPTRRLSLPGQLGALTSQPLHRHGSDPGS
UniProt Q13547, whole entry: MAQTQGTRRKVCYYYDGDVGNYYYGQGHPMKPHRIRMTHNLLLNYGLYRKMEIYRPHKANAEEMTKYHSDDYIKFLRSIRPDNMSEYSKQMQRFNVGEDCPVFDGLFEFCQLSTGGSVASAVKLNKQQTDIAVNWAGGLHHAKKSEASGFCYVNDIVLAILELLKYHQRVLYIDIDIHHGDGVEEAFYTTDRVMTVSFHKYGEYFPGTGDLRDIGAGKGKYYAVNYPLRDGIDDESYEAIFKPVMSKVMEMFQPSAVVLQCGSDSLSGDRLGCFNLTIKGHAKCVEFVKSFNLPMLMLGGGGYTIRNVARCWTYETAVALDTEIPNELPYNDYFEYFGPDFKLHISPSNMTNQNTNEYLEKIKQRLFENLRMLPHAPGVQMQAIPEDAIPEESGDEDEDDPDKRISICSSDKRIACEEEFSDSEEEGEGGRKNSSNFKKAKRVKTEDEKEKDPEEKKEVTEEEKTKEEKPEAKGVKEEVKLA
UniProt Q9Y618, 395-489 partner limits assumed: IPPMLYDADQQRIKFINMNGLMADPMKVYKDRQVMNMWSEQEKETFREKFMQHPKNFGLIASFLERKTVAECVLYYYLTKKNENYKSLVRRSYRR

One data set has as its target HDAC2 (Homo sapiens (Human), UniProt Q92769). Kind of data set: HDAC enzyme assay, HDAC2. Conditions: read-out: IC50 (nM) HDAC2; 24 hours pre-incubation with enzyme.
Another data set has as its target HDAC3 (Homo sapiens (Human), UniProt O15379). Kind of data set: HDAC enzyme assay, HDAC3. Conditions: read-out: IC50 (nM) HDAC3; 24 hours pre-incubation with enzyme.
Data set [1] is described as follows: Rat cassette pharmacokinetics. As to the method:
Male SD rats were fasted overnight. Compounds of the invention were dissolved in dimethyl acetamide at 10 times the final concentration, then Solutol HS 15 (BASF) was added to a final concentration of 10%. Finally 80% saline was added and vortexed to achieve a clear solution. For the IV dosing three animals were injected via the foot dorsal vein with 1 mg/kg compound. For the PO dosing 5 mg/kg of compound was delivered by oral gavage. Blood was collected via the tail vein into K2EDTA tubes at 5 minutes, 15 minutes, 30 minutes, 1 hour, 2 hours, 4 hours, 8 hours and 24 hours after dosing. The blood was centrifuged at 2000 g for 5 minutes at 4° C. to obtain plasma. The plasma was extracted with acetonitrile and the level of compound was analyzed by LC/MS/MS. The level of compound in plasma was calculated from a standard curve in rat plasma. The IV clearance and area under the curve were calculated using WinNonLin software. The dose adjusted area under the curve for the IV and oral dosing were used to calculate the oral bioavailability.

The target in the next data set is hERG channel (Homo sapiens (Human), UniProt Q12809). Kind of data set: hERG assay (QPatch, CHO cell line expressing hERG channels). Conditions: In vitro tox. The procedure: For hERG assays, a CHO cell line stably transfected with hERG cDNA and expressing hERG channels were seeded into a QPatch plate (Sophion) at a density of 3-8×10^6 cells/ml. The cells were voltage clamped at a holding potential of −80 mV. The hERG current was activated by depolarizing at +20 mV for 5 sec, after which the current was taken back to −50 mV for 5 sec to remove the inactivation and observe the deactivating tail current. The maximum amount of tail current size was used to determine hERG current amplitude. Six doses (30, 10, 3, 1, 0.3 and 0.1 μM) of Compound 003 were chosen to obtain fitting curves and IC50. Data were analyzed using Assay Software provided by Sophion and Graphpad Prism.
(In general: The hERG channel carries a current that helps repolarise heart muscle cells.)

Data set [2] relates to CYP1A2, CYP2C9, CYP2C19, CYP3A4, CYP2D6. As to the kind of experiment: Cyp inhibition in human liver microsomes. Conditions: In vitro tox. As to the method:
For Cyp inhibition, human live microsomes from BD Gentest were incubated with Compound 003 (10, 3.33, 1.11, 0.37, 0.12, 0.04, 0.01 μM) and substrate (CYP1A2: Phenacetin at 30 μM; CYP2C9: Diclofenac at 10 μM; CYP2C19: S-Mephenytoin at 35 μM; CYP3A4: Midazolam at 5 μM and Testosterone at 80 μM; CYP2D6: Bufuralol at 10 μM) for the following incubation times: CYP1A2, 2C9, 2D6: 10 minutes, 37° C.; CYP2C19: 45 minutes, 37° C.; CYP3A4: 5 minutes, 37° C. Substrate conversion was measured by liquid chromatography/mass spectrometry/mass spectrometry (LC/MS/MS). Inhibition was calculated by curve fitting in Graph Pad Prism.
A general note: Liver microsomes are vesicles of endoplasmic reticulum, rich in cytochrome P450 enzymes.

A further data set is described as follows: Solubility. The data set is classed as physicochemical.
A further data set deals with HDAC1 (Homo sapiens (Human), UniProt Q13547). As to the kind of experiment: HDAC enzyme assay, HDAC1. To be noted: read-out: IC50 (nM) HDAC1; 24 hours pre-incubation with enzyme.
Setting [3] is: rat cassette dosing, 5 mg/kg PO.

Regarding `CC1(Nc2ccc(C(=O)Nc3cc(-c4cccs4)ccc3N)cc2)CCN(C(=O)N2CCOCC2)CC1`, the half-maximal inhibitory concentration (IC50) (in general, the concentration that gives 50% inhibition) at HDAC2 came to 21 nM. Further, the IC50 at HDAC3 came out at 286 nM. For the same compound, in data set [1] (setting [3]), the “PO AUC” value was found to be 15.941 µg·h/mL, the “PO Cmax” value was 1.497 µg/mL and the “PO T½” value was 7.6 h. The “IV Clr.” value in data set [1] (rat cassette dosing, IV 1 mg/kg) turned out to be 0.57 L/h/kg. Moreover, the F % in data set [1] (rat, oral AUC to IV AUC, dose adjusted) is listed as 209%. The hERG on hERG channel was found to be 12 µM. The compound also displayed a Cyp in data set [2] greater than 10 µM. For the same compound, in “Solubility”, the Solubility (in general, the concentration that dissolves in the medium under given conditions) was 12 µM (≈ 6.24 µg/mL).

On to `Nc1ccc(-c2cccs2)cc1NC(=O)c1ccc(NC2CCN(C(=O)N3CCOCC3)CC2)cc1` [Compound 020], for which the results for the IC50 at HDAC1, on HDAC2 and on HDAC3 were 0.9 nM, 4.2 nM and 43 nM, respectively.
